Inconclusive results, whose numbers are uncertain, are shown with a selection of clear calls. Potencies of inconclusive entries are doubtful fits and often do not repeat. Calls of active or inactive are those of the source. The call rests on the fitted dose curve; in most records, active means well fitted curve in the direction sought with a large enough effect; inconclusive means small, poorly fitted or top-dose-only effect, or another doubt; inactive means no such curve, though single readings can be large or run the other way.
Assay: qHTS of small molecules that selectively kill Giardia lamblia: GS isolate Assay for SAR
Conditions: Giardia lamblia GS isolate viability; series mostly up to 37.9 µM
From the text: Giardia lamblia is a human pathogen afflicting impoverished nations, and the most common cause of outbreaks of diarrhea in the United States. Giardia has been classified by the CDC as a category B bioterrorism organism. The favored anti giardiasis drugs in the US are metronidazole or tinidazole, compounds that have undesirable side effects. Moreover, increasing resistance to these drug regimens and recurrence remains a concern. It is thus clear that alternative drug treatments are needed.
In collaboration with the University of Maryland (College Park), a bioluminescence Giardia viability assay based on the trophozoites' ATP content was developed. This assay is suitable for high throughput screening, and miniaturized the assay for compound screening in 1536-well plates. The Molecular Libraries Small Molecule Repository (MLSMR) was screened against this assay to find compounds that selectively kill Giardia trophozoites (AID 540267). Selected compounds were re-acquired to confirm their trophozoite toxicity activity (AID 588397) and lead chemotypes were identified for medicinal chemistry optimization. The data herein is the result of the first round of SAR for this project. Decrease in luminescence signal indicative of tropozoite growth inhibition (inhibitors) is the desired outcome for this assay.
NIH Chemical Genomics Center [NCGC]
NIH Molecular Libraries Probe Centers Network [MLPCN]
Assay Submitter (PI): Osnat Herzberg, University of Maryland, College Park, MD.
Giardia assay media was dispensed to an assay plate at 2 ul / well volume. Twenty-three nanoliter / well compounds were pinned into the plates using the Kalypsys robotic system. Giardia trophozoites were dispensed into the well at a concentration of 100 cells / well and incubated anaerobically at 37C for 48 hours. After compound incubation, 4 ul/ well ATPLite 1-Step luminescence assay detection reagent was and the plates were incubated at room temperature. After 30 min of incubation with the detection reagent, luminescence signal was obtained using the PerkinElmer ViewLux plate reader. Data was then processed and normalized to both positive and negative controls. Biosafety level 2 laboratory practices were observed throughout the duration of this screen.

Row | SMILES | Potency
1 | Cc1cc(C)nc(NC(=S)N2CCN(c3cc(Br)cc(C(F)(F)F)c3)CC2)c1 | inconclusive: 0.3 nM [inhibitor]
2 | Cc1cc(C)nc(NC(=S)N2CCN(c3ccc(F)c(F)c3F)CC2)c1 | inconclusive: 2.8 nM [inhibitor, full curve, poor fit]
3 | Cc1ccnc(NC(=S)N2CCCc3ccc(C(F)(F)F)cc32)c1 | inactive
4 | Cc1ccnc(NC(=S)N2CCN(c3cccc(N(C)C)c3)CC2)c1 | inconclusive: 28000 nM [inhibitor, single point]
5 | Cc1ccnc(NC(=S)N2CCN(c3cc(C(F)(F)F)cc(C(F)(F)F)c3)CC2)c1 | inconclusive: 0.6 nM [inhibitor]

— PubChem BioAssay AID720676 (National Center for Advancing Translational Sciences (NCATS), 2013)
